In patent publication US6911474B2, “Methods, compounds, and compositions for reducing body fat and modulating fatty acid metabolism” (The Regents of the University of California, priority 2001, dated 2005):

Assay: Plasma hormone levels by radioimmunoassay (HPA axis)
Format: in vivo, rat
Details: 20 mg per kg, i.p., 60 min after injection
Experimental: Blood chemistry. Plasma β-hydroxybutyrate and glycerol were measured using commercial kits (Sigrna, St. Louis, Mo.). Plasma prolactin, corticosterone and luteinizing hormone were quantified by radioimmunoassay (Navarro et al., Neuroreport, 8:491-496 (1997)).

SMILES: CCCCCCCC/C=C\CCCCCCCC(=O)NCCO [OEA, Oleoylethanolamide]
- plasma corticosterone (B): 280 ± 61 ng per ml
- plasma luteinizing hormone (LH): 6.2 ± 1.5 ng per ml
- plasma prolactin (PRL): 8.2 ± 3.2 ng per ml
